Results as given in the supplement of paper PMC9015667.
Where a name gives a salt, the structure may show the parent alone. The list shows a part of the results. Repeats are few or missing, and single values can be far off.

Experiments:
Assay in all cases: reduction in cell viability relative to untreated/vehicle; higher = more growth inhibition
Conditions in all cases: 200 nM; 72 h
M229P = test system: M229P (parental melanoma line)
M229R = test system: M229R (matched melanoma line resistant to BRAF inhibitors)
M238P = test system: M238P (parental melanoma line)
M238R = test system: M238R (matched melanoma line resistant to BRAF inhibitors)
M249P = test system: M249P (parental melanoma line)
M249R = test system: M249R (matched melanoma line resistant to BRAF inhibitors)
UACC62P = test system: UACC62P (parental melanoma line)
UACC62R = test system: UACC62R (matched melanoma line resistant to BRAF inhibitors)

Measured: reduction in cell viability

COc1ccccc1OCC(O)COC(N)=O (stereo unspecified) [Methocarbamol]
< 0%: M229P | M229R | M238P | M238R | M249P | M249R | UACC62P | UACC62R

CCC1(C)CC(=O)NC1=O (stereo unspecified) [Ethosuximide]
< 0%: M229P | M229R | M238P | M238R | M249P | M249R | UACC62P | UACC62R

CC[C@@H]1C(=O)N(C)c2cnc(Nc3ccc(C(=O)NC4CCN(C)CC4)cc3OC)nc2N1C1CCCC1
43.8%: M249R
72.9%: UACC62R
41.9%: UACC62P
24.6%: M249P
47.5%: M229R
34.6%: M238P
29.9%: M229P
< 0%: M238R

O=c1[nH]c(=O)n([C@H]2C[C@H](O)[C@@H](CO)O2)cc1/C=C/Br [Brivudine]
< 0%: M229P | M229R | M238P | M238R | M249P | M249R | UACC62P | UACC62R

NCCCCCC(=O)O [Aminocaproic acid]
< 0%: M229P | M229R | M238P | M238R | M249P | M249R | UACC62P | UACC62R

O=C(O)CCNC(=O)c1ccc(/N=N/c2ccc(O)c(C(=O)O)c2)cc1 [Balsalazide]
< 0%: M229P | M229R | M238P | M238R | M249P | M249R | UACC62R
2.21%: UACC62P

C[C@@H]1C/C=C/C=C/C=C/C=C/[C@H](O[C@@H]2O[C@H](C)[C@@H](O)[C@H](N)[C@@H]2O)C[C@@H]2O[C@](O)(C[C@@H](O)C[C@H]3O[C@@H]3/C=C/C(=O)O1)C[C@H](O)[C@H]2C(=O)O [Natamycin]
< 0%: M229P | M229R | M238P | M238R | M249P | M249R | UACC62P | UACC62R

CN(C)[C@@H]1C(O)=C(C(N)=O)C(=O)[C@@]2(O)C(O)=C3C(=O)c4c(O)cccc4[C@@](C)(O)[C@H]3C[C@@H]12 [Tetracycline hydrochloride]
< 0%: M229P | M229R | M238P | M238R | M249P | M249R | UACC62P | UACC62R

Cc1cnc(-c2cc(N3CCN(C(=O)CCS(C)(=O)=O)CC3)ncc2Cl)c(C)c1
< 0%: M229P | M229R | M238P | M238R | M249P | M249R | UACC62P | UACC62R

O=C(NC1CCNCC1)c1n[nH]cc1NC(=O)c1c(Cl)cccc1Cl
77.5%: UACC62P
86.1%: M238P
94.2%: M249R
78.6%: UACC62R
56.1%: M229R
88.6%: M249P
56.6%: M238R
56.3%: M229P

CCOC(=O)c1c(CSc2ccccc2)n(C)c2cc(Br)c(O)c(CN(C)C)c12 [Arbidol]
< 0%: M229P | M229R | M238P | M238R | M249P | M249R | UACC62P | UACC62R

Copied from the entries so far (two entries):
Cc1cnc(-c2cc(N3CCN(C(=O)CCS(C)(=O)=O)CC3)ncc2Cl)c(C)c1
< 0%: M229P | M229R | M238P | M238R | M249P | M249R | UACC62P | UACC62R

O=C(NC1CCNCC1)c1n[nH]cc1NC(=O)c1c(Cl)cccc1Cl
77.5%: UACC62P
86.1%: M238P
94.2%: M249R
78.6%: UACC62R
56.1%: M229R
88.6%: M249P
56.6%: M238R
56.3%: M229P

Going on with the list.

COc1c(N2CCNC(C)C2)c(F)cc2c(=O)c(C(=O)O)cn(C3CC3)c12 (stereo unspecified) [Gatifloxacin]
< 0%: M229P | M229R | M238P | M238R | M249P | M249R | UACC62P | UACC62R

Cc1cn([C@H]2O[C@@H](CO)[C@H](O)[C@H]2F)c(=O)[nH]c1=O [Clevudine]
3.64%: UACC62P
< 0%: M229P | M229R | M238P | M238R | M249R | UACC62R
2.78%: M249P

N=C(N)NC(=N)N1CCOCC1 [Moroxydine]
< 0%: M229P | M229R | M238P | M238R | M249P | M249R | UACC62R
8.04%: UACC62P

CN(CCOc1ccc(NS(C)(=O)=O)cc1)CCc1ccc(NS(C)(=O)=O)cc1 [Dofetilide]
< 0%: M229P | M229R | M238P | M238R | M249P | M249R | UACC62P | UACC62R

Cn1cc(/C=C/C(=O)c2cccc(F)c2)cc1/C=C/C(=O)NO
< 0%: M229P | M229R | M238P | M238R | M249P | M249R | UACC62P | UACC62R

Cc1oc(=O)oc1CN1CCN(c2cc3c(cc2F)c(=O)c(C(=O)O)c2n3C(C)S2)CC1 (stereo unspecified) [Prulifloxacin]
< 0%: M229P | M229R | M238P | M238R | M249P | M249R | UACC62P | UACC62R

NC[C@H](O)c1ccc(O)c(O)c1 [Noradrenaline bitartrate monohydrate]
< 0%: M229P | M229R | M238P | M238R | M249P | UACC62P | UACC62R
3.21%: M249R

c1ccc2c(CCNc3ccc(Nc4ccncc4)cc3)c[nH]c2c1
< 0%: M229P | M229R | M238P | M238R | M249P | M249R | UACC62R
5.07%: UACC62P

Nc1ccn([C@H]2CC[C@@H](CO)O2)c(=O)n1 [Zalcitabine]
7.54%: UACC62P
2.59%: M238P
< 0%: M229P | M229R | M238R | M249P | M249R | UACC62R

Nc1ccc(-c2ccc3ncc4ccc(=O)n(-c5cccc(C(F)(F)F)c5)c4c3c2)cn1 [Torin-2]
84.8%: UACC62P
83.6%: M249P
85.3%: M229R
80.4%: UACC62R
91%: M229P
82.5%: M249R
79.1%: M238P
55.8%: M238R

CN(C)[C@@H](CCOc1cccc2ccccc12)c1ccccc1 [Dapoxetine hydrochloride]
1.36%: UACC62P
< 0%: M229P | M229R | M238P | M238R | M249P | M249R | UACC62R
